{"sequences": {"note": "Protein sequences, listed by entry. Tags and fused reporters are not part of them. Lines headed by an entry give the natural chain unless they say otherwise; changes in a name come on top.", "UniProt Q16763": "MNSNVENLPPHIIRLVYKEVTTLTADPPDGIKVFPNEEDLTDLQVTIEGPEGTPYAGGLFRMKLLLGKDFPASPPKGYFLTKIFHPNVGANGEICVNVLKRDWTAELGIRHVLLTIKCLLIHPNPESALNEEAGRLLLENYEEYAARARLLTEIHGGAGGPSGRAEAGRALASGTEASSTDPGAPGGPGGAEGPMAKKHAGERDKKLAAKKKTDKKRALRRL", "UniProt P19474": "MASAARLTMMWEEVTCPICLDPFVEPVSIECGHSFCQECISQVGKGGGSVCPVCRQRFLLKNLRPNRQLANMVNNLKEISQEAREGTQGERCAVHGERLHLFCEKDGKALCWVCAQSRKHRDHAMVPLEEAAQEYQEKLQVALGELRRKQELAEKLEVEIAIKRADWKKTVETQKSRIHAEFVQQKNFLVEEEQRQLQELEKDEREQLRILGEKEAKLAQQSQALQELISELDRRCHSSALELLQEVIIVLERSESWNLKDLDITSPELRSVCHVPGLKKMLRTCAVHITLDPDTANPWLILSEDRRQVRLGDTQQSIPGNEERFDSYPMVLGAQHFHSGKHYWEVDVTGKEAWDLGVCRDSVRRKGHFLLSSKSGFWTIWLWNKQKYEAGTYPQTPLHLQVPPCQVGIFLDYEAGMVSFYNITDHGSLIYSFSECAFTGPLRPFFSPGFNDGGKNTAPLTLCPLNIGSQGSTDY"}, "source": "paper PMC10329682", "key": {"[1]": {"molecular_target": "Ubiquitin-conjugating enzyme E2S (human (endogenous in T24 and UM-UC-3)) (UniProt Q16763)", "assay": "co-IP; endogenous proteins in lysates of wild-type T24 and UM-UC-3 cells; 2 ug of the corresponding antibody overnight at 4 C, Protein A/G magnetic beads 2 h at room temperature, western blot"}, "[2]": {"molecular_target": "tripartite motif containing 21 (human (endogenous in T24 and UM-UC-3)) (UniProt P19474)", "assay": "co-IP; endogenous proteins in lysates of wild-type T24 and UM-UC-3 cells; 2 ug of the corresponding antibody overnight at 4 C, Protein A/G magnetic beads 2 h at room temperature, western blot"}}, "note": "No constants are given. Whether binding was seen depends on the method and setting. Binding seen in cells or lysates may run through a third protein. Some entries that bind do so weakly or less than the wild type."}
{"binder": "lipoma preferred partner (protein, UniProt Q93052 1-612) MSHPSWLPPKSTGEPLGHVPARMETTHSFGNPSISVSTQQPPKKFAPVVAPKPKYNPYKQPGGEGDFLPPPPPPLDDSSALPSISGNFPPPPPLDEEAFKVQGNPGGKTLEERRSSLDAEIDSLTSILADLECSSPYKPRPPQSSTGSTASPPVSTPVTGHKRMVIPNQPPLTATKKSTLKPQPAPQAGPIPVAPIGTLKPQPQPVPASYTTASTSSRPTFNVQVKSAQPSPHYMAAPSSGQIYGSGPQGYNTQPVPVSGQCPPPSTRGGMDYAYIPPPGLQPEPGYGYAPNQGRYYEGYYAAGPGYGGRNDSDPTYGQQGHPNTWKREPGYTPPGAGNQNPPGMYPVTGPKKTYITDPVSAPCAPPLQPKGGHSGQLGPSSVAPSFRPEDELEHLTKKMLYDMENPPADEYFGRCARCGENVVGEGTGCTAMDQVFHVDCFTCIICNNKLRGQPFYAVEKKAYCEPCYINTLEQCNVCSKPIMERILRATGKAYHPHCFTCVMCHRSLDGIPFTVDAGGLIHCIEDFHKKFAPRCSVCKEPIMPAPGQEETVRIVALDRDFHVHCYRCEDCGGLLSEGDNQGCYPLDGHILCKTCNSARIRVLTAKASTDL", "values": [{"measurement": "binding", "setting": "[1]", "value": "binds"}, {"measurement": "binding", "setting": "[2]", "value": "binds"}]}
